This is one part of the list.
Each target was assayed with CS(=O)(=O)CCNCc1ccc(-c2ccc3ncnc(Nc4ccc(OCc5cccc(F)c5)c(Cl)c4)c3c2)o1 [lapatinib] (assay: log2 fold change, soluble protein after heating vs DMSO (PISA); higher = thermal stabilisation; K562 lysate, 10 uM; active = over 0.2 and 3.5 SD of the protein, either way, in both replicates (recomputed)).
In short: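 A 30 min treatment with 10 μM compound was applied to crude K562 extract at 1 mg/mL protein in PBS pH 7.4 with 1 mM MgCl2. Heating for 3 min spanned 48°C-58°C, after which aliquots were pooled, adjusted to 0.5% NP-40 at 4°C and spun at 21,000xg for 90 min. TMTpro 16plex LC-MS/MS of the supernatant, with channel sums equalised, gave values recorded as log-two fold change in thermal stability against solvent controls, from duplicates.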

Chains of the proteins cited; added tags and fusions are not shown. Lines headed by an entry give the natural chain unless they say otherwise; changes in a name come on top.
UniProt O00180: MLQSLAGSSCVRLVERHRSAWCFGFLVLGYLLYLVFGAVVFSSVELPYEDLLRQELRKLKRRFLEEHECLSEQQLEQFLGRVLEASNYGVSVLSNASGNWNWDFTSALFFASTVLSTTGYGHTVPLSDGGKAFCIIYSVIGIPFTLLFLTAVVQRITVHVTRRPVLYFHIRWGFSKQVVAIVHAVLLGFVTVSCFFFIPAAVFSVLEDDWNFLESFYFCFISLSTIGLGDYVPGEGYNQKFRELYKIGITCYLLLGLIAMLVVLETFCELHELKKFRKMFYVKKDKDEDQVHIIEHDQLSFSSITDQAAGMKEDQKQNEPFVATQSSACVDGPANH
UniProt O76095: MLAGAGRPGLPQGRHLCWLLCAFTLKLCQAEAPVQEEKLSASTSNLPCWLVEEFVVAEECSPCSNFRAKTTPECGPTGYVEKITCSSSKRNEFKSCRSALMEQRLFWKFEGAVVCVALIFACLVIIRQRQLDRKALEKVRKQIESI
UniProt Q86VI3: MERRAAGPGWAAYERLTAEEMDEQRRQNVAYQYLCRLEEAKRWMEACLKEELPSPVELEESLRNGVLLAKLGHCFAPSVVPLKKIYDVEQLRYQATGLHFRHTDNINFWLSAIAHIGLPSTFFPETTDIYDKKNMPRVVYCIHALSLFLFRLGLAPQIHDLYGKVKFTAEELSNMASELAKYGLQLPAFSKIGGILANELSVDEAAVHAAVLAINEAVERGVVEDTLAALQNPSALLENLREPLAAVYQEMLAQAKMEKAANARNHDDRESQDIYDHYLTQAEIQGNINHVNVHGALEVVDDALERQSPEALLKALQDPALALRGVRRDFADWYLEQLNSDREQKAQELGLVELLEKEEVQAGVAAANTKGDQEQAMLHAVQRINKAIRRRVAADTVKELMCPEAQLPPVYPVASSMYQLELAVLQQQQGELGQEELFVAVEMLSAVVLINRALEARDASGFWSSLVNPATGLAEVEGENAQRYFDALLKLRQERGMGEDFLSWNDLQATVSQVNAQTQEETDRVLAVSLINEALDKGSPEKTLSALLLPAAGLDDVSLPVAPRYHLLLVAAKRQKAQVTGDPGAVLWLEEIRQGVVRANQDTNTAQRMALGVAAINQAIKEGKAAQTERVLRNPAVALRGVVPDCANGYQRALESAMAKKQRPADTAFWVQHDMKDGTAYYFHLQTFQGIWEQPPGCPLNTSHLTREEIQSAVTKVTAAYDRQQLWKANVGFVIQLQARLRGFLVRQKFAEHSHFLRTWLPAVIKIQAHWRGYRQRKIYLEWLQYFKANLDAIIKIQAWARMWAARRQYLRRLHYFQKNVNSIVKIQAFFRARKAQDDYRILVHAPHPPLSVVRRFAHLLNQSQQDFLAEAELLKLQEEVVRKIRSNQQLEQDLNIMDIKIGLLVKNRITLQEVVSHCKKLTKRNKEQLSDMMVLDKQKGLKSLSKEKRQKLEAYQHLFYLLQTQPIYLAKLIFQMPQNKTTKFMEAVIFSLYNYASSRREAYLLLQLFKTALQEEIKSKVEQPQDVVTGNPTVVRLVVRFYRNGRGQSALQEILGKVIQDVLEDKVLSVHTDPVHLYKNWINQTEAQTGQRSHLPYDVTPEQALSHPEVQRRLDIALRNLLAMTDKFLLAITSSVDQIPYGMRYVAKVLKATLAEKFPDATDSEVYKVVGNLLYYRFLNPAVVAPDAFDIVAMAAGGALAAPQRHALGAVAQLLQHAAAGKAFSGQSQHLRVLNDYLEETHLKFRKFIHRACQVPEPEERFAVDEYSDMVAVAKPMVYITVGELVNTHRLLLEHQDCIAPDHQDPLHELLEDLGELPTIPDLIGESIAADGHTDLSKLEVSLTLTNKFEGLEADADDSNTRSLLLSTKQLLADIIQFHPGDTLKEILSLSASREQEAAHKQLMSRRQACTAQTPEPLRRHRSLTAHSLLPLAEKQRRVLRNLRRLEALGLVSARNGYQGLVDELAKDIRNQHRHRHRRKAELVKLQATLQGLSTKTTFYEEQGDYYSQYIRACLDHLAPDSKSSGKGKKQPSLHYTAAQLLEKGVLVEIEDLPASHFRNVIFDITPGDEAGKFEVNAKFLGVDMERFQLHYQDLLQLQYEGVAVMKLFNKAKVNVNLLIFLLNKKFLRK
UniProt Q8NA54: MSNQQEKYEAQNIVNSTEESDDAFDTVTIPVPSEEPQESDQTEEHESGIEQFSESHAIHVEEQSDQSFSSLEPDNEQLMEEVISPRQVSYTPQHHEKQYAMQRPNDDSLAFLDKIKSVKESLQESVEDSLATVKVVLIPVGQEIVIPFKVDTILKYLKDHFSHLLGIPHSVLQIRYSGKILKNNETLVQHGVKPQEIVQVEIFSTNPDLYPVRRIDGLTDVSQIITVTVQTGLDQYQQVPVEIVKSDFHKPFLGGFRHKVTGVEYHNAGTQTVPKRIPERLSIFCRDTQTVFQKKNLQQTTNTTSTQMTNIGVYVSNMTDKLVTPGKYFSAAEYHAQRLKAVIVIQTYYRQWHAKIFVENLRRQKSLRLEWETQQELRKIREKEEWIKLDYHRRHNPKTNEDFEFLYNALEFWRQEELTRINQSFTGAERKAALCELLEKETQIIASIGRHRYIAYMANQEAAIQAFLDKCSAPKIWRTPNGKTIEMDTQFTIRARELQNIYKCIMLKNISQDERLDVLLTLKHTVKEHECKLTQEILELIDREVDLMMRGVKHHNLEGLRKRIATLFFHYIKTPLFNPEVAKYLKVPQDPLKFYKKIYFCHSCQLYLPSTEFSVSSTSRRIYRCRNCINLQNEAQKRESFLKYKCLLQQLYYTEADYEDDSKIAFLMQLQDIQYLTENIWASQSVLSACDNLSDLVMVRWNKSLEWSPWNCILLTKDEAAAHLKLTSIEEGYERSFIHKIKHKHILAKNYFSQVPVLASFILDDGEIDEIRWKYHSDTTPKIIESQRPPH
UniProt Q14573, whole entry, looked up: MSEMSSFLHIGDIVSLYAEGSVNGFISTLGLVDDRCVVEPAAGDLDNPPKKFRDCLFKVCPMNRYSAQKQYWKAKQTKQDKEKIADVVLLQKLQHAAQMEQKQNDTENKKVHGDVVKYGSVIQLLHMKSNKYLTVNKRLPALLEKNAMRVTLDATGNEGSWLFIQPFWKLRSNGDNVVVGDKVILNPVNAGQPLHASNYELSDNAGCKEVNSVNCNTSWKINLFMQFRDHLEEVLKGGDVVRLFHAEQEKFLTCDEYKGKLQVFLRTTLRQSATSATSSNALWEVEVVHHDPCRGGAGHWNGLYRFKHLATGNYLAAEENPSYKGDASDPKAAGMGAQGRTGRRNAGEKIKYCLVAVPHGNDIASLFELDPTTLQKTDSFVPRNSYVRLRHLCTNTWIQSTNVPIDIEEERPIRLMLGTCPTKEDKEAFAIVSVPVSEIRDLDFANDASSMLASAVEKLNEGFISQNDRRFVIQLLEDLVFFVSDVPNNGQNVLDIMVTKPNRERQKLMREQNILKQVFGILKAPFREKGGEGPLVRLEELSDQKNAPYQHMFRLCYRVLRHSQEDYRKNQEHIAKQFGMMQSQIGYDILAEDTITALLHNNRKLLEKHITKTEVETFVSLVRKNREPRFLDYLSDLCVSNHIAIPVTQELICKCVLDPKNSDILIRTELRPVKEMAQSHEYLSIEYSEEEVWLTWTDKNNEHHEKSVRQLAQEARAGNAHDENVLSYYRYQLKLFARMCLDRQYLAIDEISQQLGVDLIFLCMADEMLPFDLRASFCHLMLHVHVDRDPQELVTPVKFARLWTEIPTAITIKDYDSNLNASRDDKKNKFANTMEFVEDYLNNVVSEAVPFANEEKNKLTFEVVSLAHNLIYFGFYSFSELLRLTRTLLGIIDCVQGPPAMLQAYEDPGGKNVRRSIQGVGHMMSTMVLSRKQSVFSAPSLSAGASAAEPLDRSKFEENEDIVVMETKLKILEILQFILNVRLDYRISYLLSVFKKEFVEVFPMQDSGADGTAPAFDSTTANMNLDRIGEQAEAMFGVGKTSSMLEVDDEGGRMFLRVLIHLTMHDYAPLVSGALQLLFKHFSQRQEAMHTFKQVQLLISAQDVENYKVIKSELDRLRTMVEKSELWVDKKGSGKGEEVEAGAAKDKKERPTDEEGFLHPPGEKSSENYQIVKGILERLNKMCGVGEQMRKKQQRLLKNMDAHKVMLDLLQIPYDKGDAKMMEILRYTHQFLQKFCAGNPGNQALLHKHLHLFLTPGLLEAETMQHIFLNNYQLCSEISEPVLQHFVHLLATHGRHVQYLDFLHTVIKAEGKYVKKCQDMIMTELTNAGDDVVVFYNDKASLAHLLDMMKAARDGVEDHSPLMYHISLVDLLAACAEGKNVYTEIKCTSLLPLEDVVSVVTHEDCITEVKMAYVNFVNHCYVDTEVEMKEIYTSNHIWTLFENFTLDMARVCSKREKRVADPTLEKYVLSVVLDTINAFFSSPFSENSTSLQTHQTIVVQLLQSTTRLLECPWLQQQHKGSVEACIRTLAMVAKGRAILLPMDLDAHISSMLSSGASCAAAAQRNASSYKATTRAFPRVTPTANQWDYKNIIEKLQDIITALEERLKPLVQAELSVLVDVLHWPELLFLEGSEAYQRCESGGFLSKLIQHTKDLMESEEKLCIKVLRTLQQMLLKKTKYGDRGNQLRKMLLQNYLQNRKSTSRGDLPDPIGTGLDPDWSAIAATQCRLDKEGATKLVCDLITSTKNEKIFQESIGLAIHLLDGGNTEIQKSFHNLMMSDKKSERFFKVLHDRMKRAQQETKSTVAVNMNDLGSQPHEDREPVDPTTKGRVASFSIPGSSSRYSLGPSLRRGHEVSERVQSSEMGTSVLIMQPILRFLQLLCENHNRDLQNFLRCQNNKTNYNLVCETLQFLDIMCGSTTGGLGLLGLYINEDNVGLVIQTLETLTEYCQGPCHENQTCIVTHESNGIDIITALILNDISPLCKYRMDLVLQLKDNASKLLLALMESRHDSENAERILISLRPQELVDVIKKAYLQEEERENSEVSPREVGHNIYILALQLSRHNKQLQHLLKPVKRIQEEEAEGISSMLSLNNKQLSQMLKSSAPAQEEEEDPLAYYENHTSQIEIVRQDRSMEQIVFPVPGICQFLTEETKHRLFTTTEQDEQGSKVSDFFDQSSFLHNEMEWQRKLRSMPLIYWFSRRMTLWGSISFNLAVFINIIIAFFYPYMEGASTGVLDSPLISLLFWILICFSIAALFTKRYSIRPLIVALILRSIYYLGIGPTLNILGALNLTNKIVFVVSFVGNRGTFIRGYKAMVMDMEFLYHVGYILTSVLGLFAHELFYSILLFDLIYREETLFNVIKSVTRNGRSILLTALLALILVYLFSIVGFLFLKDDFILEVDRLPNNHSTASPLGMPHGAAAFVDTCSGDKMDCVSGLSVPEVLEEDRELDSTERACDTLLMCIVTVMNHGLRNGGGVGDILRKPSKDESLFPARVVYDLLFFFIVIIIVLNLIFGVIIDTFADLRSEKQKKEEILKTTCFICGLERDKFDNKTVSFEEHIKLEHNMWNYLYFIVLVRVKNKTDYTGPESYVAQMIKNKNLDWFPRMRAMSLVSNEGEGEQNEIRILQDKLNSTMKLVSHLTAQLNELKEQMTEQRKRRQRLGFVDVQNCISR
UniProt P19823: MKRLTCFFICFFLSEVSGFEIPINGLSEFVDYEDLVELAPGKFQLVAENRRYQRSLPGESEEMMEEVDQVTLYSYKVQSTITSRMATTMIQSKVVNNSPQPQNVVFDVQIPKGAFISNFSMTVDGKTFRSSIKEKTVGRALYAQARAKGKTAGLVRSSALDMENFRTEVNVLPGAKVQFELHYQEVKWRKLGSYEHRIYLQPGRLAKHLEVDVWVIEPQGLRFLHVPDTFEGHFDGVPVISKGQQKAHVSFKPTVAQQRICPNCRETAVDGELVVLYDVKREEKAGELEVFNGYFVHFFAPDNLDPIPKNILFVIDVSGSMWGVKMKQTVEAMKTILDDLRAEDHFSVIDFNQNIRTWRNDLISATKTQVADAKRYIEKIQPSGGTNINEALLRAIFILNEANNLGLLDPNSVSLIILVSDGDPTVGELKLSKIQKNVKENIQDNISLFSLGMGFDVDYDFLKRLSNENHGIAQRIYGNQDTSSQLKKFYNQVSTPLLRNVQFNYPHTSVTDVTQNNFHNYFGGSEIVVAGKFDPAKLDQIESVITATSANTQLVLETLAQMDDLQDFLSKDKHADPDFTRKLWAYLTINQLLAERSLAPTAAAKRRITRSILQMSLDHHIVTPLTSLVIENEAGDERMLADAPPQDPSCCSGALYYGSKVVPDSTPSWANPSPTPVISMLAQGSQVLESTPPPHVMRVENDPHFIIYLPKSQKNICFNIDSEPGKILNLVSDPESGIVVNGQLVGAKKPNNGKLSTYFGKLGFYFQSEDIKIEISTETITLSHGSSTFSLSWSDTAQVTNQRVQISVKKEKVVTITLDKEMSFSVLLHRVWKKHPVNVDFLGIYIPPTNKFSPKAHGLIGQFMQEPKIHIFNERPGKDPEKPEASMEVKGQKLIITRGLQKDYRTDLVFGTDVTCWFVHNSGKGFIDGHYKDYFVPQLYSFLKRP

log2 fold change, inactive:
KCTD7 (UniProt Q96MP8) -0.093
JAG2 (UniProt Q9Y219) -0.103
KCNK1 (UniProt O00180) -0.032
KCMF1 (UniProt Q9P0J7) -0.015
ITGAE (UniProt P38570) -0.162
KAT2A (UniProt Q92830) 0.06
JTB (UniProt O76095) 0.01
KDM3B (UniProt Q7LBC6) 0.02
KDM1B (UniProt Q8NB78) -0.081
JUN (UniProt P05412) 0.071
ITM2C (UniProt Q9NQX7) 0.27
ITGA2B (UniProt P08514) 0.209
IRS2 (UniProt Q9Y4H2) -0.128
KAT6B (UniProt Q8WYB5) 0.056
IPO5 (UniProt H0Y3V4) 0.079
IQGAP3 (UniProt Q86VI3) -0.035
IST1 isoform 2 (UniProt P53990) -0.036
ITPR1 (UniProt Q14643) -0.079
IQUB (UniProt Q8NA54) 0.081
ITPR3 (UniProt Q14573) -0.013
JAGN1 (UniProt Q8N5M9) -0.029
IQGAP1 (UniProt P46940) -0.022
JAK3 (UniProt P52333) -0.002
IP6K1 (UniProt Q92551) 0.026
ITPRID2 (UniProt P28290) -0.092
JMJD7 (UniProt P0C870) 0.099
KBTBD7 (UniProt Q8WVZ9) -0.033
KCNK5 (UniProt O95279) -0.286
IQCD (UniProt Q96DY2) -0.04
KDF1 (UniProt Q8NAX2) -0.019
ITIH2 (UniProt P19823) 0.047
KCNN4 (UniProt O15554) 0.106
KATNBL1 (UniProt Q9H079) -0.013
JMJD4 (UniProt Q9H9V9) -0.033
KDELR3 (UniProt O43731) -0.038
KDELR1 (UniProt P24390) -0.056
KAT14 (UniProt Q9H8E8) -0.072
ITM2A (UniProt O43736) -0.005
ITGB1BP1 (UniProt O14713) 0.024

2 consecutive records already listed, for reference:
log2 fold change, inactive:
KDF1 (UniProt Q8NAX2) -0.019
ITIH2 (UniProt P19823) 0.047
